Results published in PMC3349853.
No constants are given. Whether binding was seen depends on the method and setting. Binding seen in cells or lysates may run through a third protein. A result given as binding can be weak or reduced; the word gives no strength.

Amino acid sequences for entries named in this document (tags omitted). A change or cut given only in a name is not applied to a line headed by its entry.
UniProt P0CAP1: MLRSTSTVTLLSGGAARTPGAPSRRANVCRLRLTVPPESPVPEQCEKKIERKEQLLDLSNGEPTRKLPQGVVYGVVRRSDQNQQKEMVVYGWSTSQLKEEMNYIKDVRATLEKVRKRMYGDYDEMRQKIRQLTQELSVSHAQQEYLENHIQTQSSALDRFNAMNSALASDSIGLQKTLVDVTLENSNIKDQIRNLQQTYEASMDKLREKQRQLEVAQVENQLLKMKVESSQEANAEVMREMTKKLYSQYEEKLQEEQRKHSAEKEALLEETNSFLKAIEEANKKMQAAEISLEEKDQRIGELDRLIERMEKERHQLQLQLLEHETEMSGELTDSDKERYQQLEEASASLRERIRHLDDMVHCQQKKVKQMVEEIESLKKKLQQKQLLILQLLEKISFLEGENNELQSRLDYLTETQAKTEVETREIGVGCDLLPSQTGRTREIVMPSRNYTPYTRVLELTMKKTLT
UniProt Q07157: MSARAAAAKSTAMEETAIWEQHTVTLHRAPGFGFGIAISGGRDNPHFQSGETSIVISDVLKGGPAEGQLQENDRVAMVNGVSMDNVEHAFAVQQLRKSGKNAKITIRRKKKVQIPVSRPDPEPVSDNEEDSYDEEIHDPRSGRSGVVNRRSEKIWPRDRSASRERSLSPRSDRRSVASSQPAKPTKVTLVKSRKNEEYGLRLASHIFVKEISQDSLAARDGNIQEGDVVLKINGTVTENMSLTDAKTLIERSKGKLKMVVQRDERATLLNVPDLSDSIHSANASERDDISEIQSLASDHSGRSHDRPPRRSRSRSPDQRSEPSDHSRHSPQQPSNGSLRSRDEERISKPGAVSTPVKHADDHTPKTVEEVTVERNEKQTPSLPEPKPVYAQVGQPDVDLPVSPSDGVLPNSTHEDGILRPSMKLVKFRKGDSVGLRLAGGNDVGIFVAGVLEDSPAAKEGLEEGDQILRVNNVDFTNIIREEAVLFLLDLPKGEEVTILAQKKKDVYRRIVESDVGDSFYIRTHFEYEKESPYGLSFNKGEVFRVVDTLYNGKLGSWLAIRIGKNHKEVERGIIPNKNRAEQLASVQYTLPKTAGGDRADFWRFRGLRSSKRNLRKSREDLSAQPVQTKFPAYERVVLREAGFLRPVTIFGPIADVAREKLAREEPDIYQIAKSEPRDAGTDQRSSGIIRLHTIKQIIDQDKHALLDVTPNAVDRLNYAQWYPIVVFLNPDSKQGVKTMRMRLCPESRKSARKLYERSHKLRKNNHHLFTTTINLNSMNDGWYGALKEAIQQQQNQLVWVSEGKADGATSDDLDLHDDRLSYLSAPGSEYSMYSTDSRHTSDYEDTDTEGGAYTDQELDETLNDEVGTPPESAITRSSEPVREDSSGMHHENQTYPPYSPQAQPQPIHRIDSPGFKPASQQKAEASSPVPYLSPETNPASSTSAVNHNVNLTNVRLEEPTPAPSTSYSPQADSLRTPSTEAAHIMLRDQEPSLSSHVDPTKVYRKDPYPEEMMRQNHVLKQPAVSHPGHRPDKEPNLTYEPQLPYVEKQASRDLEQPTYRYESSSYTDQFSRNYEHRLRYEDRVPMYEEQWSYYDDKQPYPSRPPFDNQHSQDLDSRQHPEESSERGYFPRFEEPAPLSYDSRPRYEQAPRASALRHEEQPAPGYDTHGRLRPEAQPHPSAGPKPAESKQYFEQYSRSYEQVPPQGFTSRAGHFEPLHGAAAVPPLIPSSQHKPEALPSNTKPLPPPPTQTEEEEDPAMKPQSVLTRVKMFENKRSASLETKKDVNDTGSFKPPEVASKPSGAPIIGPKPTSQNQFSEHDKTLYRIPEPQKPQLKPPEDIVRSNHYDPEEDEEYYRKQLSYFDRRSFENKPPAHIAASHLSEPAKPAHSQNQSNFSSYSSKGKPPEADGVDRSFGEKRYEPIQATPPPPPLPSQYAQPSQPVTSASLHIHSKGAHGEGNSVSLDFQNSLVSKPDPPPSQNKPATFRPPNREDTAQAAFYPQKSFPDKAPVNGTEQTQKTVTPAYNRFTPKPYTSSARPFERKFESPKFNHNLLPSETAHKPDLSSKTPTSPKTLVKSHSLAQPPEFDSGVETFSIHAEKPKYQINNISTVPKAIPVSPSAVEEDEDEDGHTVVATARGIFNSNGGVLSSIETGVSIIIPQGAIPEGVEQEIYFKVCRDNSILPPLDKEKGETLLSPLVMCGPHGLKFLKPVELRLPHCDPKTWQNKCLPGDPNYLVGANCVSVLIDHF
UniProt P15924: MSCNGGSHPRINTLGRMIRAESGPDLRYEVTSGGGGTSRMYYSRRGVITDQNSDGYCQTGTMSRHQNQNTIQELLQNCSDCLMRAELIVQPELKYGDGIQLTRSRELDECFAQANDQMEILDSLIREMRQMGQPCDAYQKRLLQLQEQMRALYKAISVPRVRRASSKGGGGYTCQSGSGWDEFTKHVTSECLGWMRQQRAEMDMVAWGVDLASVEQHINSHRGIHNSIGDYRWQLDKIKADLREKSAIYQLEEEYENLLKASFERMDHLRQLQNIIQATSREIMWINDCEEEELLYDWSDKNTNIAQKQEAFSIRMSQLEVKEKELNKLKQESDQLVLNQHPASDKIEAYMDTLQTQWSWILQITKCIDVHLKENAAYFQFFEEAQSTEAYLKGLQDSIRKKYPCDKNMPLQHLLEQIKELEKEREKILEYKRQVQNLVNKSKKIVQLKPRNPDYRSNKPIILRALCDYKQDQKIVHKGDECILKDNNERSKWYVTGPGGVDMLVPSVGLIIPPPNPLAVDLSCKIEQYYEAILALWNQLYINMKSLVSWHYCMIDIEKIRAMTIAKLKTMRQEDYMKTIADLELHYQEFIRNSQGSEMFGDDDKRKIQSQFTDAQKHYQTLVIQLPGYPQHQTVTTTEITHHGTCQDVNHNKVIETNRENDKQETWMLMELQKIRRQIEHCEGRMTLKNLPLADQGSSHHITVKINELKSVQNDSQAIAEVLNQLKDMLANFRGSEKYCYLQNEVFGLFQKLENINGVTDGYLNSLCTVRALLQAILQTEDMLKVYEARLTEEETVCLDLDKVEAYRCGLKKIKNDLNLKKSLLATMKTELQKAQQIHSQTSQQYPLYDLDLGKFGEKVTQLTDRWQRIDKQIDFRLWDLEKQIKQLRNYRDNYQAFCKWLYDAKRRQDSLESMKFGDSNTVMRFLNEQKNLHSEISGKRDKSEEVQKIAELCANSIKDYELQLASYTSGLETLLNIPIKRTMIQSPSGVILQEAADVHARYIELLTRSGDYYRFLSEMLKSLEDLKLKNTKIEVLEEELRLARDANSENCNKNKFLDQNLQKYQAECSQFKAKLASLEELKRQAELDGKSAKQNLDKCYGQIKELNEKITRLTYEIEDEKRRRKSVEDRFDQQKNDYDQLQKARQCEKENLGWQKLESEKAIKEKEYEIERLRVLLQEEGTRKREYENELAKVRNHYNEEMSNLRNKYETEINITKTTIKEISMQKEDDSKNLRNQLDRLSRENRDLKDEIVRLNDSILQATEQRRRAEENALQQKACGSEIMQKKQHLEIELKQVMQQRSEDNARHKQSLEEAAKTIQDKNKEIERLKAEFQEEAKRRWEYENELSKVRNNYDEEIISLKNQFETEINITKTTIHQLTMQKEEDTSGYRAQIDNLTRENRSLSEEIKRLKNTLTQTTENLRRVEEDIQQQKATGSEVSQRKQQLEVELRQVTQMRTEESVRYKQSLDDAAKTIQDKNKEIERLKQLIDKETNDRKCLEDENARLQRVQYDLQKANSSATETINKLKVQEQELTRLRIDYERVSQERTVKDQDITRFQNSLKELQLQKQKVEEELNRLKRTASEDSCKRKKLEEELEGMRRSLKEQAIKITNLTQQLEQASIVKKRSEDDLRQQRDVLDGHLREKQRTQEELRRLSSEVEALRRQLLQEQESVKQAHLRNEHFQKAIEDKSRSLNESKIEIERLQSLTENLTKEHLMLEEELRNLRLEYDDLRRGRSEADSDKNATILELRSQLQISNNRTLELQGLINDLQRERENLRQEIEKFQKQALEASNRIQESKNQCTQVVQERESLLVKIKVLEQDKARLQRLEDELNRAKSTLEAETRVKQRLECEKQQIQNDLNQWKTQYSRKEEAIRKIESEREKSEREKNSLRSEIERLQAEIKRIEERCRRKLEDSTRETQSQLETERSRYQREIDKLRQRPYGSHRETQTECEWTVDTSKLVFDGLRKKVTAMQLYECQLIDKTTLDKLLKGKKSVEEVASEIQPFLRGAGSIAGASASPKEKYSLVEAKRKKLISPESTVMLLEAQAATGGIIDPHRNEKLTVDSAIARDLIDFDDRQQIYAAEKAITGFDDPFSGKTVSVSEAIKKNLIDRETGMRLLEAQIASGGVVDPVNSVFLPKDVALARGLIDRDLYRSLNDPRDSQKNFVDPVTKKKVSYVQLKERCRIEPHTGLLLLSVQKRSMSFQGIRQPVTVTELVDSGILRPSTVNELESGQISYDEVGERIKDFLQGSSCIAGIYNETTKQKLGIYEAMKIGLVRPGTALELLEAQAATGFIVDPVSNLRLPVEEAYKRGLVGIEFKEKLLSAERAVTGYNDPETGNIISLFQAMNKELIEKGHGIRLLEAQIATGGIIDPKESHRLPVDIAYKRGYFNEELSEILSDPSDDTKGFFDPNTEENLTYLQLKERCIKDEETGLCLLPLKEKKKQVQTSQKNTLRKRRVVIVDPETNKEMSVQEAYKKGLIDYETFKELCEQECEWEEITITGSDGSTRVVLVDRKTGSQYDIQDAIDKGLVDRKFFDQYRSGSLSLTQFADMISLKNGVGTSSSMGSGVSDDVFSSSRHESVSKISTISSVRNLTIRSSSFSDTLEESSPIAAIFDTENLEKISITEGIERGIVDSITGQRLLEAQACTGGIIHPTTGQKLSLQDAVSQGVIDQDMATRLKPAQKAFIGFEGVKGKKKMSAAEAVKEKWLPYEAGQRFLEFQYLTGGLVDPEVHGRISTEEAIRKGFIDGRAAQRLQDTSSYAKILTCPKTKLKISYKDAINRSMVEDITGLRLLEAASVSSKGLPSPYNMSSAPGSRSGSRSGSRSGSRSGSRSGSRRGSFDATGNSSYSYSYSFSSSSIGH

Target: protein myozap (UniProt P0CAP1)
Assay: co-IP; immunoprecipitation experiments on myozap; source of the material not told

binding	Molecule
binds	protein ZO-1 (from UniProt Q07157 1-1748)
binds	desmoplakin (from UniProt P15924 1-2871)
binds	plakophilin-2 (protein, UniProt Q99959 1-881) MAAPGAPAEYGYIRTVLGQQILGQLDSSSLALPSEAKLKLAGSSGRGGQTVKSLRIQEQVQQTLARKGRSSVGNGNLHRTSSVPEYVYNLHLVENDFVGGRSPVPKTYDMLKAGTTATYEGRWGRGTAQYSSQKSVEERSLRHPLRRLEISPDSSPERAHYTHSDYQYSQRSQAGHTLHHQESRRAALLVPPRYARSEIVGVSRAGTTSRQRHFDTYHRQYQHGSVSDTVFDSIPANPALLTYPRPGTSRSMGNLLEKENYLTAGLTVGQVRPLVPLQPVTQNRASRSSWHQSSFHSTRTLREAGPSVAVDSSGRRAHLTVGQAAAGGSGNLLTERSTFTDSQLGNADMEMTLERAVSMLEADHMLPSRISAAATFIQHECFQKSEARKRVNQLRGILKLLQLLKVQNEDVQRAVCGALRNLVFEDNDNKLEVAELNGVPRLLQVLKQTRDLETKKQITDHTVNLRSRNGWPGAVAHACNPSTLGGQGGRITRSGVRDQPDQHGLLWNLSSNDKLKNLMITEALLTLTENIIIPFSGWPEGDYPKANGLLDFDIFYNVTGCLRNMSSAGADGRKAMRRCDGLIDSLVHYVRGTIADYQPDDKATENCVCILHNLSYQLEAELPEKYSQNIYIQNRNIQTDNNKSIGCFGSRSRKVKEQYQDVPMPEEKSNPKGVEWLWHSIVIRMYLSLIAKSVRNYTQEASLGALQNLTAGSGPMPTSVAQTVVQKESGLQHTRKMLHVGDPSVKKTAISLLRNLSRNLSLQNEIAKETLPDLVSIIPDTVPSTDLLIETTASACYTLNNIIQNSYQNARDLLNTGGIQKIMAISAGDAYASNKASKAASVLLYSLWAHTELHHAYKKAQFKKTDFVNSRTAKAYHSLKD
